# Measured values: publication PMC7819943, “Rice protein-binding microarrays: a tool to detect cis-acting elements near promoter regions in rice”
# Some of the results follow.
# Biological target: T1, OsSMF1 (Oryza sativa, UniProt Q6ZLB0 1-436)
# T1 sequence: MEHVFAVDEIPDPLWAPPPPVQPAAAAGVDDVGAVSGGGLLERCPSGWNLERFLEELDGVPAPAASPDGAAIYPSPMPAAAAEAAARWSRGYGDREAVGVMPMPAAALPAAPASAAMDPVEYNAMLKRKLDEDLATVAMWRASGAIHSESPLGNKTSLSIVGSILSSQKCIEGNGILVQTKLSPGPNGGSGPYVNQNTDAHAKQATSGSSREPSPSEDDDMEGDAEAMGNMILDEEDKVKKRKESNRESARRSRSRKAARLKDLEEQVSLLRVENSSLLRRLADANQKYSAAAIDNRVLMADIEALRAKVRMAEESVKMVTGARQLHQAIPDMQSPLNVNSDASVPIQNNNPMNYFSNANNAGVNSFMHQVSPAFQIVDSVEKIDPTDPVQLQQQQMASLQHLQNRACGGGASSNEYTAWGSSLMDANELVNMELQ
# Experiment: protein-binding microarray (RPBM); PBS, 2% BSA, 51.3 ng/ul salmon testes DNA, 50 uM zinc acetate, 200 nM TF, 25 C, 1 h; high values mean tight binding
# Settings: protein: recombinant; tags: N-terminal polyhistidine and DsRed monomer fusion (pET32a); chain copies: 2; label: CyDye5-dUTP incorporated in the synthesized complementary strand; 3' TTTTT single-stranded linker to array surface; dsDNA, one strand shown
# In short: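 Binding signal is defined as the fluorescence intensity of each feature in arbitrary units, read on an Axon 4000B scanner. Transcription factors with N-terminal polyhistidine and DsRed fusions came from E. coli BL21-CodonPlus and were purified on Ni–NTA. They were incubated at 200 nM for 1 h at 25 °C on a custom Agilent array that had been made double-stranded with Cy5-dUTP, with 50 µM zinc acetate present, and the array was washed.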
row,Sequence,binding signal
1,ATTATATTATGTGTTTTATTTATTTTATTAGCAACGTGGACGGAGTCACCTAGTGCAG,4170 fluorescence intensity (a.u.)
2,TTACTCGGATGCAGCTGTTATGGTGGAAGGGGATTGATGACGGAGTCACCTAGTGCAG,3190 fluorescence intensity (a.u.)
3,GAGCGTACGTTTCAACGCCAACTCATTGCCGCGGTTGCGTCGGAGTCACCTAGTGCAG,3590 fluorescence intensity (a.u.)
4,TGCACATATGTATCACACTACCGTGTCACTCTGTCAATACCGGAGTCACCTAGTGCAG,5280 fluorescence intensity (a.u.)
5,AATGGGAGTGGCATCGTTTAGTGGTGATGGTGTGGCATCACGGAGTCACCTAGTGCAG,3520 fluorescence intensity (a.u.)
6,CTGATCCACATCGACTACATCGAGGCCATCCGGCGGCTCCCGGAGTCACCTAGTGCAG,3220 fluorescence intensity (a.u.)
7,CATCACTCCATACAAACAACAAGAACACAACACACTTGATCGGAGTCACCTAGTGCAG,20700 fluorescence intensity (a.u.)
8,AAACTGACATGATCCGATCAACATGATATATAGGCTAGCCCGGAGTCACCTAGTGCAG,3180 fluorescence intensity (a.u.)
9,TTCTGTTTGGAGTTAGACTTTTGGTCTGTTTCTTGGGTTGCGGAGTCACCTAGTGCAG,4460 fluorescence intensity (a.u.)
10,GCTAGCTATTCTGAGTCTTCTGACTCAGCATTCTTCTGCTCGGAGTCACCTAGTGCAG,33700 fluorescence intensity (a.u.)
11,TGTATATATGCATGCGCCAAGGACAGGTCATTAGCTTCTTCGGAGTCACCTAGTGCAG,3670 fluorescence intensity (a.u.)
12,ACGACAGCGTAATGCCGGATTCAACAAGCAAGTCAGCAGCCGGAGTCACCTAGTGCAG,4140 fluorescence intensity (a.u.)
13,CCACCTACGGCGCATGCCGTCTGCCACGTAGAGCCCACCGCGGAGTCACCTAGTGCAG,8720 fluorescence intensity (a.u.)
14,GTATCTAGATTTATGGCATAAACATACATGTAGCTATATTCGGAGTCACCTAGTGCAG,3910 fluorescence intensity (a.u.)
15,CGCGAAAGGCGTGAAACCAGTGCACGCATCACCCATCTCGCGGAGTCACCTAGTGCAG,3400 fluorescence intensity (a.u.)
16,TGGGGCCATTGCAAGAGACCCCACATGTCATTGGAATAGACGGAGTCACCTAGTGCAG,21700 fluorescence intensity (a.u.)
17,ATTCTTTTACCGCGTTGATGAATCGGATTCGTTCCGGTTTCGGAGTCACCTAGTGCAG,3360 fluorescence intensity (a.u.)
18,CGGTGCGAGGTACTACGTCAAGGCGTACGAGGCCAGGTACCGGAGTCACCTAGTGCAG,3140 fluorescence intensity (a.u.)
19,AGATTCCTCCCACGATCCTCCTATCGAACCTCCTCTCGCACGGAGTCACCTAGTGCAG,27100 fluorescence intensity (a.u.)
20,CTCCACACCTGACACCACGCGGGCTGCCTCCATCGTCATCCGGAGTCACCTAGTGCAG,6460 fluorescence intensity (a.u.)
21,TTTCAGCCCATATATGATCCTCCTTCGGCCCATAATTTTGCGGAGTCACCTAGTGCAG,3760 fluorescence intensity (a.u.)
22,GAGCCCTCCGCCGCCGCCAGCTCGCCCTTCGCCGAGCCCACGGAGTCACCTAGTGCAG,3520 fluorescence intensity (a.u.)
23,TAATTTTCTTCCAAAATTCGTGTATTTCTAACTTTATTTACGGAGTCACCTAGTGCAG,29100 fluorescence intensity (a.u.)
24,TTGAGGCGTGATACCTTGGCCTTCTCTGCCCGCCGATCTGCGGAGTCACCTAGTGCAG,3590 fluorescence intensity (a.u.)
25,GGTGATGATTGATGAAGCATATGATGTGTCGCTAAATGCTCGGAGTCACCTAGTGCAG,5520 fluorescence intensity (a.u.)
26,AACATGTGTTCGTATATTCAATGTGACACGCAAGATCAATCGGAGTCACCTAGTGCAG,6950 fluorescence intensity (a.u.)
27,TCACAAAATCCACCTGCCTCGTCAGACTGGTTTGTTGTCACGGAGTCACCTAGTGCAG,13700 fluorescence intensity (a.u.)

row,Sequence,binding signal
1,CCCCTCTCTCTCTCTCTCTCTCTCTCTCTCTCTCTCTCTCCGGAGTCACCTAGTGCAG,20500 fluorescence intensity (a.u.)
2,AGAGGAGCATCTTCTCGCCTGAGATTCCGTCGACGCCATTCGGAGTCACCTAGTGCAG,3540 fluorescence intensity (a.u.)
3,TAGTCAGTGACGTAATTTGTGCTGATTAAATTTAATTTCTCGGAGTCACCTAGTGCAG,4940 fluorescence intensity (a.u.)
4,TCTCTTCCACAGTGCATTGACAAATGGCTTCGGATGAGGACGGAGTCACCTAGTGCAG,3290 fluorescence intensity (a.u.)
5,CGCTGTCATTGCTCGACGTGTCGGAGAACAACCTCACCGGCGGAGTCACCTAGTGCAG,4060 fluorescence intensity (a.u.)
6,AACATGTTTGTCAGCATTGACGTGAGCTCTAACTTCAACTCGGAGTCACCTAGTGCAG,4540 fluorescence intensity (a.u.)
7,TGCTTCGCCAGTGAATCGCGTGGATATAAATGGGCCTCTCCGGAGTCACCTAGTGCAG,3440 fluorescence intensity (a.u.)
8,CCTATTACGACGTCGCCGGCCACCAGCGCGCCTGCCCGCACGGAGTCACCTAGTGCAG,3210 fluorescence intensity (a.u.)
9,GCAGGGATTAAGATTATACCTTTAATGACACCATACCTTTCGGAGTCACCTAGTGCAG,3360 fluorescence intensity (a.u.)
10,TTGCATCGTCGGCAGCAGCGGCTTACGTGTGCCGAAGCAGCGGAGTCACCTAGTGCAG,8300 fluorescence intensity (a.u.)
11,TGTCATTGGATCAGTACGCGTAGCTAAGTTATGTTGCAGTCGGAGTCACCTAGTGCAG,10600 fluorescence intensity (a.u.)
12,AAAAGAGTAAACTTGTCCTTGAAACCGACAAATTTCACACCGGAGTCACCTAGTGCAG,17000 fluorescence intensity (a.u.)
13,AAACTTAACAACTTGAGAGTTATTCATGATTTATATTCCCCGGAGTCACCTAGTGCAG,3280 fluorescence intensity (a.u.)
14,TCTATGATGAAGATGATTGTACGTTCACAACTAGTTACCTCGGAGTCACCTAGTGCAG,3440 fluorescence intensity (a.u.)
15,ATCTGGATCGATCAAGTCATCAAACGCCACAGATTTAGGACGGAGTCACCTAGTGCAG,3460 fluorescence intensity (a.u.)
16,CATACGTTAAAGTTATCTAGTCAGCATGAAATCGTCGGCACGGAGTCACCTAGTGCAG,8740 fluorescence intensity (a.u.)
17,AATGGTGCTTAAGCTAACTCACCAACACGTCTCCTTCCCGCGGAGTCACCTAGTGCAG,3970 fluorescence intensity (a.u.)
18,CACTCCACCAGCGACACTTGACACGCACGCGCCACACGCCCGGAGTCACCTAGTGCAG,4480 fluorescence intensity (a.u.)
19,TCCAAGCGCTATCTTGGTGGAAGTTACCATGTCATCTTGCCGGAGTCACCTAGTGCAG,3430 fluorescence intensity (a.u.)
20,GGACCACCCTGCCGCGGACATCACCCATCTCGTCATCTCCCGGAGTCACCTAGTGCAG,4470 fluorescence intensity (a.u.)
21,ACGGGTGAGAAGTTGTGACACGTCAGAGATGACTCAACACCGGAGTCACCTAGTGCAG,13900 fluorescence intensity (a.u.)
22,GATATAGTATTTAAAACGTCCATTACACGTGCACGATTACCGGAGTCACCTAGTGCAG,4230 fluorescence intensity (a.u.)
23,CGGCGGCGTCCACGACGACTCGTCCCTCGCGCACCGCCCGCGGAGTCACCTAGTGCAG,3660 fluorescence intensity (a.u.)
24,AAATAACTAGATCATATTACTCTTTCATGCAATAAACATCCGGAGTCACCTAGTGCAG,24800 fluorescence intensity (a.u.)
25,AGGTGGTTACGGTACGGCCTCATCTGACGTCAGATCCGGGCGGAGTCACCTAGTGCAG,15900 fluorescence intensity (a.u.)
26,TGTACAACATGGGCCTCAAGTACACCACGTCGACGGTGGCCGGAGTCACCTAGTGCAG,5920 fluorescence intensity (a.u.)
27,GCAAAACCTTCATGCTCATCGATATTACTCTTATCGCCAACGGAGTCACCTAGTGCAG,25200 fluorescence intensity (a.u.)

# 3 entries from above, reformatted:
row | Sequence | binding signal
1 | CCCCTCTCTCTCTCTCTCTCTCTCTCTCTCTCTCTCTCTCCGGAGTCACCTAGTGCAG | 20500 fluorescence intensity (a.u.)
2 | AGAGGAGCATCTTCTCGCCTGAGATTCCGTCGACGCCATTCGGAGTCACCTAGTGCAG | 3540 fluorescence intensity (a.u.)
3 | TAGTCAGTGACGTAATTTGTGCTGATTAAATTTAATTTCTCGGAGTCACCTAGTGCAG | 4940 fluorescence intensity (a.u.)
